For this assay, the system named is P388 leukemia ip, CD2F1 mice, survival T/C. Description: NCI In Vivo Anticancer Drug Screen. Data for tumor model P388 Leukemia (intraperitoneal) in CD2F1 (CDF1) mice. As to conditions: T/C endpoint: median survival time, higher T/C = longer survival.
[1] abbreviates: dose: 240.0 mg/kg/injection, schedule: Q01DX005 (ip), vehicle: saline with Tween-80.
Where [2] appears, read: dose: 100.0 mg/kg/injection, schedule: Q01DX009 (ip), vehicle: Klucel (hydroxypropylcellulose) (HPC).
[3] abbreviates: dose: 200.0 mg/kg/injection, schedule: Q01DX009 (ip), vehicle: Klucel (hydroxypropylcellulose) (HPC).
The mark [4] stands for this setting: dose: 200.0 mg/kg/injection, schedule: Q01DX009 (ip), vehicle: saline with Tween-80.
Where [5] appears, read: dose: 25.0 mg/kg/injection, schedule: Q01DX009 (ip), vehicle: Klucel (hydroxypropylcellulose) (HPC).
The mark [6] stands for this setting: dose: 50.0 mg/kg/injection, schedule: Q01DX005 (ip), vehicle: Klucel (hydroxypropylcellulose) (HPC).
Setting [7] is: dose: 50.0 mg/kg/injection, schedule: Q04DX003 (ip), vehicle: Klucel (hydroxypropylcellulose) (HPC).
Setting [8] is: dose: 100.0 mg/kg/injection, schedule: Q01DX005 (ip), vehicle: Klucel (hydroxypropylcellulose) (HPC).
[9] abbreviates: dose: 100.0 mg/kg/injection, schedule: Q04DX003 (ip), vehicle: Klucel (hydroxypropylcellulose) (HPC).
The mark [10] stands for this setting: dose: 200.0 mg/kg/injection, schedule: Q01DX005 (ip), vehicle: Klucel (hydroxypropylcellulose) (HPC).
Setting [11] is: dose: 200.0 mg/kg/injection, schedule: Q04DX003 (ip), vehicle: Klucel (hydroxypropylcellulose) (HPC).
Setting [12] is: dose: 400.0 mg/kg/injection, schedule: Q01DX001 (ip), vehicle: Klucel (hydroxypropylcellulose) (HPC).
The mark [13] stands for this setting: dose: 400.0 mg/kg/injection, schedule: Q04DX002 (ip), vehicle: Klucel (hydroxypropylcellulose) (HPC).
Where [14] appears, read: dose: 400.0 mg/kg/injection, schedule: Q04DX003 (ip), vehicle: Klucel (hydroxypropylcellulose) (HPC).

The list is a part of this screen's results and no random one: it is rich in T/C values a quarter to a half above the control, in often repeated tests (any T/C) and in doses without a T/C. Further doses and runs are listed elsewhere. T/C is the treated group as % of the vehicle group. Some doses have a count of surviving animals in place of a T/C: the source files T/C as zero there, which appears to mark a toxic dose or a test without result, not a measured value. Some survivor counts are full or nearly so, which does not show that the dose was tolerated: the source hardly ever lists a survival T/C far under the control, and the zero likely stands for such cases as well. Counts of survivors are from the toxicity check (mostly the fifth day) where no day follows; animals may have died later. Schedule codes are those of the source, taken here to give the interval after Q, in days (D) or hours (H), and the number of doses after X. Some entries were tested several times; the results are listed from low to high. Some molecules as drawn cover several salts, stereoisomers or complexes of the source; a dose is that of the sample tested. For survival time, the PubChem record calls one and a half times the control and up active, and a quarter to a half above the control has no call in these data; cut-offs in other NCI protocols can differ. Some T/C values are followed by the survivors on the day toxicity was checked, most often the fifth; without a count, all were alive then. Signs of the kind (2×) say how often a value occurs here.

`COc1ccc(C(C)(C)c2cc3c(cc2OC)OCO3)cc1`: the T/C is, setting by setting: (dose: 60.0 mg/kg/injection, schedule: Q01DX005 (ip), vehicle: saline with Tween-80) 125 % of control; (dose: 120.0 mg/kg/injection, schedule: Q01DX005 (ip), vehicle: saline with Tween-80) 125 % of control. Under setting [1], the survivor count was 1 of 6 and 5 of 6.
For `CC(C)(C)N=C(CCN1CCN(CCC(=NC(C)(C)C)Nc2ccc([N+](=O)[O-])cc2)CC1)Nc1ccc([N+](=O)[O-])cc1`, under setting [2], the survivor count is listed as 6 of 6.
In the case of `CC12CCC(Cl)CC1=CCC1C2CCC2(C)C1CCCN2CCCl` (configuration not stated), the T/C (dose: 50.0 mg/kg/injection, schedule: Q01DX001 (ip), vehicle: saline with Tween-80) was 139 % of control. The survivor count by setting is: (dose: 50.0 mg/kg/injection, schedule: Q01DX001 (ip), vehicle: saline) 0 of 6; (dose: 100.0 mg/kg/injection, schedule: Q01DX001 (ip), vehicle: saline with Tween-80) 0 of 6; (dose: 100.0 mg/kg/injection, schedule: Q01DX001 (ip), vehicle: saline) 0 of 6.
With `CCC(=N\N=C(N)N)/C(C)=N\N=C(N)N`, for the setting “dose: 200.0 mg/kg/injection, schedule: Q01DX005 (ip), vehicle: saline with Tween-80”, the survivor count is 0 of 6.
Take `CC1=C(N2CC2)C(=O)c2ccccc2C1=O`: the survivor count under setting [3] is reported as 2 of 6.
As to `Clc1ccc(NCNC2Nc3ccccc3N2)cc1Cl`, the survivor count under setting [1] is 6 of 6.
Regarding `NC1=C(Cl)C(=O)C(Cl)=C(Cl)C1=O`, the survivor count by setting is: (dose: 3.13 mg/kg/injection, schedule: Q01DX009 (ip), vehicle: saline with Tween-80) 6 of 6; (dose: 6.25 mg/kg/injection, schedule: Q01DX009 (ip), vehicle: saline with Tween-80) 2 of 6; (dose: 12.5 mg/kg/injection, schedule: Q01DX009 (ip), vehicle: saline with Tween-80) 0 of 6; (dose: 50.0 mg/kg/injection, schedule: Q01DX009 (ip), vehicle: saline with Tween-80) 0 of 6; (dose: 100.0 mg/kg/injection, schedule: Q01DX009 (ip), vehicle: saline with Tween-80) 0 of 6; under setting [4], 0 of 6.
Turning to `CN(C)c1nc(N(C)C)nc(N(C)C)n1`, the T/C by setting is: (dose: 25.0 mg/kg/injection, schedule: Q01DX005 (ip), vehicle: Klucel (hydroxypropylcellulose) (HPC)) 87, 89, 91, 93, 94, 95 [5 of 6 alive], 96, 98 (2×), 100 (4×), 101, 101 [5 of 6 alive], 102 (4×), 103 (3×), 105 (2×), 107 (2×), 108 (2×), 108 [5 of 6 alive], 110, 111 (4×), 114, 117 % of control; under setting [5], 89, 91 [5 of 6 alive], 93, 94, 95, 98, 99 (4×), 100 (5×), 102 (2×), 103 (5×), 104 (2×), 106, 108, 111, 112, 114, 118, 119, 121 (2×), 123, 139 % of control; (dose: 50.0 mg/kg/injection, schedule: Q01DX001 (ip), vehicle: Klucel (hydroxypropylcellulose) (HPC)) 86, 95, 96, 97, 100 (6×), 101 (4×), 103, 104 (2×), 105, 106, 107 (4×), 108 (2×), 110 (2×), 111 [5 of 6 alive], 116, 118, 120, 121 % of control; under setting [6], 90, 94, 97, 98, 99 (2×), 100 (3×), 101 (3×), 102 (4×), 102 [5 of 6 alive], 103, 105, 107, 108 (4×), 109 (2×), 110 (2×), 111 (2×), 112 (4×), 113 % of control; (dose: 50.0 mg/kg/injection, schedule: Q01DX009 (ip), vehicle: Klucel (hydroxypropylcellulose) (HPC)) 90, 93, 98, 100 (2×), 103 (4×), 104 (2×), 105, 107 (3×), 108 (4×), 109 (2×), 110, 111, 112 (2×), 113 (2×), 114, 118, 119, 120, 122, 123, 126, 127, 130 % of control; (dose: 50.0 mg/kg/injection, schedule: Q04DX002 (ip), vehicle: Klucel (hydroxypropylcellulose) (HPC)) 88, 89, 91, 92, 94, 95, 95 [2 of 3 alive], 97 (2×), 98, 99 (3×), 100 (2×), 101 (2×), 102 (3×), 103 (2×), 104, 105 (3×), 106, 110, 113, 115, 116 (2×), 117, 120, 123 % of control. Also, the T/C runs as follows: under setting [7], 88, 95, 96, 99, 100 (7×), 101 (2×), 102 (2×), 104, 105 (3×), 106 (5×), 107 (2×), 108 (3×), 109 (4×), 115 % of control; (dose: 100.0 mg/kg/injection, schedule: Q01DX001 (ip), vehicle: Klucel (hydroxypropylcellulose) (HPC)) 87, 95 (2×), 97, 98, 99, 100 (4×), 101 (3×), 102, 103 (2×), 104 (3×), 106 (3×), 107 (3×), 109 (2×), 110 (2×), 115, 117, 119 % of control; under setting [8], 89, 92 (2×), 97, 99, 100, 102, 103, 105 (3×), 106 (2×), 108 (2×), 109, 110, 111, 112, 115, 116, 117 (2×), 118, 120 (3×), 121 (2×), 123, 127, 127 [2 of 3 alive], 136, 151 % of control; under setting [2], 86 (2×), 89, 90, 93 [2 of 3 alive], 95, 99, 100, 101, 102 (3×), 103, 105, 107, 108 (2×), 109, 110, 111, 112, 113 (3×), 115 [5 of 6 alive], 117, 118 (2×), 123, 127, 128, 130, 131, 137 % of control; (dose: 100.0 mg/kg/injection, schedule: Q04DX002 (ip), vehicle: Klucel (hydroxypropylcellulose) (HPC)) 91, 93, 95 (2×), 97, 100 (5×), 101 (2×), 102, 103 (3×), 104 (4×), 105 (3×), 107 (2×), 108 (3×), 109, 111, 114, 115 (2×), 117, 120 % of control; under setting [9], 87, 88, 97, 98, 99, 100 (4×), 103 (4×), 105 (5×), 109, 110 (2×), 111, 112, 114, 115, 116, 117 (2×), 119 (3×), 120, 122, 124, 139 % of control. The T/C was 87 [5 of 6 alive], 91, 98, 99, 100 (3×), 101, 102 (2×), 103, 104 (4×), 105 (3×), 106, 107, 109 (2×), 114 (2×), 117 (2×), 118, 119, 123 (2×), 127, 130 % of control (dose: 200.0 mg/kg/injection, schedule: Q01DX001 (ip), vehicle: Klucel (hydroxypropylcellulose) (HPC)); 87, 92, 103 [2 of 3 alive], 111 (2×), 112, 116, 117, 123, 125, 166 % of control under setting [10]; 89, 89 [5 of 6 alive], 90, 93, 95 [5 of 6 alive], 99, 112, 138 % of control under setting [3]; 86 [5 of 6 alive], 93, 97, 100 (3×), 101, 101 [2 of 3 alive], 102, 103, 104, 107, 109 (2×), 110, 112 (2×), 112 [5 of 6 alive], 113 (2×), 114 (2×), 115, 116 (2×), 117 (2×), 117 [5 of 6 alive], 118 (2×), 120, 121 (2×), 123, 124 % of control (dose: 200.0 mg/kg/injection, schedule: Q04DX002 (ip), vehicle: Klucel (hydroxypropylcellulose) (HPC)); 87, 92, 94, 99, 100, 103, 106, 109 (3×), 110, 112 (2×), 113, 114, 116, 117, 118, 121, 122, 125 (3×), 126, 128, 129 (4×), 135, 136, 139 (2×), 145, 148 % of control under setting [11]; 98, 100, 100 [5 of 6 alive], 104, 104 [2 of 3 alive], 105, 107 [5 of 6 alive], 109, 110, 112, 114, 115, 118, 119, 122, 157 % of control under setting [12]. The T/C is 92, 93, 97, 101, 103, 106, 110 [5 of 6 alive], 111 [5 of 6 alive], 116 (2×), 123, 125 % of control under setting [13] and 86 [2 of 3 alive], 87, 91, 92, 96, 102, 106, 112 [5 of 6 alive], 113, 114, 138 % of control under setting [14]. The survivor count runs as follows: under setting [5], 3 of 3; under setting [6], 3 of 3; under setting [7], 5 of 6, 3 of 3, 6 of 6; under setting [8], 1 of 3 and 6 of 6; under setting [2], 0 of 3 and 3 of 3; under setting [9], 3 of 3 and 6 of 6. Further, the survivor count is, setting by setting: under setting [10], 1 of 3, 2 of 6, 2 of 3, 4 of 6, 5 of 6, 3 of 3, 6 of 6; under setting [3], 1 of 3, 2 of 3, 4 of 6, 3 of 4, 5 of 6, 3 of 3, 6 of 6; under setting [4], 5 of 6 and 6 of 6; under setting [11], 3 of 3 and 6 of 6; (dose: 300.0 mg/kg/injection, schedule: Q01DX005 (ip), vehicle: Klucel (hydroxypropylcellulose) (HPC)) 4 of 6; under setting [12], 1 of 3, 2 of 6, 3 of 6, 2 of 3, 5 of 6, 3 of 3, 6 of 6. Further, the survivor count (dose: 400.0 mg/kg/injection, schedule: Q01DX009 (ip), vehicle: Klucel (hydroxypropylcellulose) (HPC)) is listed as 1 of 6; the survivor count under setting [13] is listed as 0 of 3, 0 of 6, 1 of 3, 3 of 6, 2 of 3, 4 of 6, 5 of 6, 3 of 3, 6 of 6; the survivor count under setting [14] is 1 of 3, 3 of 6, 2 of 3, 4 of 6, 5 of 6, 3 of 3, 6 of 6.

The record behind these values is PubChem BioAssay AID330 (DTP/NCI, 2004).
